At least one peptide structure holds a part that was inferred or is arguable (an end, a ring closure or a residue). For at least one compound, name, drawing or mass did not settle the structure.
What was measured:
[1] = Hydrophobicity estimation by RP-HPLC (percent acetonitrile at elution); format: physicochemical; settings: RP-HPLC C18, linear acetonitrile gradient 1% per minute
Excerpt: In order to estimate the hydrophobicity of each polymer, the polymer was eluted with a linear gradient of acetonitrile (1% per minute) on an HPLC reversed-phase C18 column, and the percent of acetonitrile at which the polymer was eluted was used for hydrophobicity estimation (see, “ACN (%)” in Table 3 below).
“ACN (%)” represents the percent of acetonitrile in the RP-HPLC gradient mobile phase at which the polymer was eluted and which corresponds to the estimated hydrophobicity of the polymer (column 4 in Table 3);

E. coli = experiment: Bacteria capture assay with polymer-loaded resin beads (incl. kinetic studies); format: binding, Escherichia coli ATCC 35218
Method: Various concentrations of bacteria in 500 μl luria bertani broth (LB) were shaken at room temperature in the presence of deprotected polymer-loaded beads (1.8 mg of polymer per sample) or protected polymer-loaded and unloaded beads as a control experiment in a centrifuge tube equipped with a 10 μm cutoff membrane (Whatman polypropylene mesh VectaSpin Micro). After 30 minutes incubation the samples were centrifuged at 21,000×g for 5 minutes to separate beads from unbound bacteria and further analyzed as follows.
To assess bacterial binding to the beads, filtrates were subjected to serial 10 fold dilutions and plated on LB agar plates. Cell counts were determined using the drop plate method (three 20 μl drops onto LB agar plates) after overnight incubation at 37° C. For the viability study, resins were spread directly on LB agar plates and incubated similarly. For kinetic studies, resins were incubated with 1×10^6 CFU/ml E. coli in LB for up to 15 minutes and filtered after the indicated time periods then plated for CFU count.
“Bound E. coli (CFU/mg resin)” represents the capturing capacity of bacterial binding per one milligram of polymer-loaded resin beads as assessed after 30 minutes incubation using the capture assay as presented herein (column 9 in Table 3).

## NCCCC[C@H](NC(=O)CCCCCCCCCCCNC(=O)[C@H](CCCCN)NC(=O)CCCCCCCCCCCNC(=O)[C@H](CCCCN)NC(=O)CCCCCCCCCCCNC(=O)[C@H](CCCCN)NC(=O)CCCCCCCCCCCNC(=O)[C@H](CCCCN)NC(=O)CCCCCCCCCCCNC(=O)[C@H](CCCCN)NC(=O)CCCCCCCCCCCNC(=O)[C@H](CCCCN)NC(=O)CCCCCCCCCCCNC(=O)[C@@H](N)CCCCN)C(N)=O [K(NC12K)7NH2]
[1]
  ACN (%) at which the polymer was eluted (estimated hydrophobicity): 50%
E. coli; polymer-loaded resin beads, 30 minutes incubation
  Bound E. coli (CFU/mg resin): 1 ± 0.3 × 10^6 CFU/mg resin
E. coli; unprotected bead-bound polymer 1.8 mg, 30 minutes, up to 10^6 CFU/ml
  binding: 100%
